In PMC3003240:
Results are given in words; binding and its absence hold for the method and conditions named. Binding seen in cells or lysates may run through a third protein. Some binding calls cover weakened binding; strength is not graded here.

T1: Dishevelled-2 (mouse (endogenous in F9)) (UniProt Q60838)
T1 sequence: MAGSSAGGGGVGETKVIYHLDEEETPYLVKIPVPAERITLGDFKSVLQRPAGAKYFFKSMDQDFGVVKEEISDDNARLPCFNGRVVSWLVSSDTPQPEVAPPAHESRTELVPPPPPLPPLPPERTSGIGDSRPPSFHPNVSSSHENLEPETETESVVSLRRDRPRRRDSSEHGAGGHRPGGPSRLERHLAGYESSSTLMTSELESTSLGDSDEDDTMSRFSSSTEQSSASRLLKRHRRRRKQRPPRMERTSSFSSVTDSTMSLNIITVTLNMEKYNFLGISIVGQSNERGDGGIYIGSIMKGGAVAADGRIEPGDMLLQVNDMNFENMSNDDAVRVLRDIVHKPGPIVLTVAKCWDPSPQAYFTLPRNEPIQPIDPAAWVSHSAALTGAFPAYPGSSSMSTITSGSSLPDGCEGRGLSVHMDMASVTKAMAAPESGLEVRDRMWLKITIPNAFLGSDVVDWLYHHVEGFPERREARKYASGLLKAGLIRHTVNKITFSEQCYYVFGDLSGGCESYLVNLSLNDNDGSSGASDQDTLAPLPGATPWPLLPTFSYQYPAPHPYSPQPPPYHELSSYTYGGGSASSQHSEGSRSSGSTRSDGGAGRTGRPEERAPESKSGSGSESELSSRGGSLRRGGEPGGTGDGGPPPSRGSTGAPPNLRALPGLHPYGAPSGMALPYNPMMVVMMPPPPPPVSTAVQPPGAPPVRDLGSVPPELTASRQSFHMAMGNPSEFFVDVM

T2: Dishevelled-3 (mouse (endogenous in F9)) (UniProt Q61062)
T2 sequence: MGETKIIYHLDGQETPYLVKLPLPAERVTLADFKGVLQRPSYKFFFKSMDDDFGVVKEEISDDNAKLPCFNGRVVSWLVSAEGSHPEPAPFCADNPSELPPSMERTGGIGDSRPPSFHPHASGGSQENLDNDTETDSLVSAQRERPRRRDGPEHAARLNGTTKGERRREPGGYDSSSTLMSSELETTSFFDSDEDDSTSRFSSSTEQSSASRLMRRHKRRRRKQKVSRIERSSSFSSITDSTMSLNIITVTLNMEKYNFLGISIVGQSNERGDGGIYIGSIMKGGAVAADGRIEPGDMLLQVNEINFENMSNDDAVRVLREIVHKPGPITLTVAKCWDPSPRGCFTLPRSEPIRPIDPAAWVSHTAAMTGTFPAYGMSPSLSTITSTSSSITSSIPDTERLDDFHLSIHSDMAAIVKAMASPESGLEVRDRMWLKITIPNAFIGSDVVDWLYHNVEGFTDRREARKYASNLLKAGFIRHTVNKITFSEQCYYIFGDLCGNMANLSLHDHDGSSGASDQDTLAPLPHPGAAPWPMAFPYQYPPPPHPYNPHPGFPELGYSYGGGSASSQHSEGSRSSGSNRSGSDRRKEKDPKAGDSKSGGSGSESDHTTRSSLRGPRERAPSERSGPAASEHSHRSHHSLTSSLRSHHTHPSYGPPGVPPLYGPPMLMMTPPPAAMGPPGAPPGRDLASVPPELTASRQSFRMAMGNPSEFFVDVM


Columns and labels:
[1] = biological target: T1, Dishevelled-2 (mouse (endogenous in F9)); test: co-IP; endogenous Dvl2 or Dvl3 immunoprecipitated from whole-cell lysates of untreated or Wnt5a-treated F9 cells with isoform-specific antibodies on protein A/G agarose at 4°C; washed 3 times with 20 mM Tris pH 8.0, 150 mM NaCl, 5 mM EDTA, 1% Triton X-100; IP, total and post-IP fractions immunoblotted for each Dvl isoform
[2] = biological target: T2, Dishevelled-3 (mouse (endogenous in F9)); test: as above

binding [1]	binding [2]	Binder
binds	–	Dishevelled-3 (protein, UniProt Q61062 1-716) MGETKIIYHLDGQETPYLVKLPLPAERVTLADFKGVLQRPSYKFFFKSMDDDFGVVKEEISDDNAKLPCFNGRVVSWLVSAEGSHPEPAPFCADNPSELPPSMERTGGIGDSRPPSFHPHASGGSQENLDNDTETDSLVSAQRERPRRRDGPEHAARLNGTTKGERRREPGGYDSSSTLMSSELETTSFFDSDEDDSTSRFSSSTEQSSASRLMRRHKRRRRKQKVSRIERSSSFSSITDSTMSLNIITVTLNMEKYNFLGISIVGQSNERGDGGIYIGSIMKGGAVAADGRIEPGDMLLQVNEINFENMSNDDAVRVLREIVHKPGPITLTVAKCWDPSPRGCFTLPRSEPIRPIDPAAWVSHTAAMTGTFPAYGMSPSLSTITSTSSSITSSIPDTERLDDFHLSIHSDMAAIVKAMASPESGLEVRDRMWLKITIPNAFIGSDVVDWLYHNVEGFTDRREARKYASNLLKAGFIRHTVNKITFSEQCYYIFGDLCGNMANLSLHDHDGSSGASDQDTLAPLPHPGAAPWPMAFPYQYPPPPHPYNPHPGFPELGYSYGGGSASSQHSEGSRSSGSNRSGSDRRKEKDPKAGDSKSGGSGSESDHTTRSSLRGPRERAPSERSGPAASEHSHRSHHSLTSSLRSHHTHPSYGPPGVPPLYGPPMLMMTPPPAAMGPPGAPPGRDLASVPPELTASRQSFRMAMGNPSEFFVDVM
–	binds	Dishevelled-2 (protein, UniProt Q60838 1-736) MAGSSAGGGGVGETKVIYHLDEEETPYLVKIPVPAERITLGDFKSVLQRPAGAKYFFKSMDQDFGVVKEEISDDNARLPCFNGRVVSWLVSSDTPQPEVAPPAHESRTELVPPPPPLPPLPPERTSGIGDSRPPSFHPNVSSSHENLEPETETESVVSLRRDRPRRRDSSEHGAGGHRPGGPSRLERHLAGYESSSTLMTSELESTSLGDSDEDDTMSRFSSSTEQSSASRLLKRHRRRRKQRPPRMERTSSFSSVTDSTMSLNIITVTLNMEKYNFLGISIVGQSNERGDGGIYIGSIMKGGAVAADGRIEPGDMLLQVNDMNFENMSNDDAVRVLRDIVHKPGPIVLTVAKCWDPSPQAYFTLPRNEPIQPIDPAAWVSHSAALTGAFPAYPGSSSMSTITSGSSLPDGCEGRGLSVHMDMASVTKAMAAPESGLEVRDRMWLKITIPNAFLGSDVVDWLYHHVEGFPERREARKYASGLLKAGLIRHTVNKITFSEQCYYVFGDLSGGCESYLVNLSLNDNDGSSGASDQDTLAPLPGATPWPLLPTFSYQYPAPHPYSPQPPPYHELSSYTYGGGSASSQHSEGSRSSGSTRSDGGAGRTGRPEERAPESKSGSGSESELSSRGGSLRRGGEPGGTGDGGPPPSRGSTGAPPNLRALPGLHPYGAPSGMALPYNPMMVVMMPPPPPPVSTAVQPPGAPPVRDLGSVPPELTASRQSFHMAMGNPSEFFVDVM
